Two substances from patent US10941139B2 (priority 2015, dated 2021) can be followed below.

The data set is described as follows: general procedure: solution-phase peptide synthesis; HATU/HOAt/DIEA; EDC/HOBt.

Turning to “(S)-2-((3S,7S,10R,16S, E)-10-(3-chloro-4-methoxybenzyl)-6,6,7-trimethyl-3-neopentyl-2,5,9,12-tetraoxo-1-oxa-4,8,11-triazacyclohexadec-13-en-16-yl)propanal”, the step yield (late stage modification step) was found to be 47%.

The substance “(S)-2-amino-N—((S)-1-((4-((2R,3R)-3-((S)-1-((3S,10R,16S,E)-10-(3-chloro-4-methoxybenzyl)-3-isobutyl-6,6-dimethyl-2,5,9,12-tetraoxo-1-oxa-4,8,11-triazacyclohexadec-13-en-16-yl)ethyl)oxiran-2-yl)benzyl)amino)-1-oxopropan-2-yl)-3-methylbutanamide” registered a conjugation yield (conjugation step) of 45%.
